Assay results: US20230172936A1, “VCP/p97 INHIBITOR FOR THE TREATMENT OF CANCER” (Cleave Therapeutics, Inc., priority 2020, published 2023)
At least one compound was matched to its structure with a doubt left.

Experiments:
Assay in all cases: Combination Index (Chou-Talalay) of Compound 1 with additional therapeutic agents
Assay type in all cases: cell-based, human
[1] = tested on: MOML-13; settings: MOML-13 (FLT3 heterozygous, BRCA2 mutant)
Experimental: (§1) Each combination was tested in 3 cell lines: MOML-13 (Human Acute Myeloid Leukemia cell line; Addex Bio), MV-4-11 (Human B Myelomoncytic Leukemia cell line; ATCC), and OCI-AML-3 (Human Acute Myeloid Leukemia cell line).
(§2) Within this range, 20 dose levels were tested for each combination, with each response determined in duplicate. […] The actual drug concentrations in the ratios were determined from the IC50 values obtained for each individual drug.
(§3) Raw data was analyzed using Graph Pad Prism, four parameter logistic fits, and Chou-Talalay drug combination analyses. […] For data points with Fe<0, the fractional effect was set to 0.001. Data points with Fe>0.99 or <0.01 were omitted from the Chou-Talalay analysis because the Chou-Talalay analysis fits data to the Log of the fractional effect, with equal weight applied across the range of effect, such that the high and low end of the dose response, very small changes in effect within the range of experimental error erroneously skew the outcome of the model fit.
(§4) A Combination Index (CI) vs Fractional Effect plot showing the actual combination index plotted vs Fractional effect value was plotted for each combination dose. In this analysis, CI=1 represents additive activity, CI>1 represent less than additive activity (often referred to as antagonism) and CI<1=synergistic activity (better than additive).

[2] = tested on: MV-4-11; settings: MV-4-11 (FLT3 homozygous mutant)
Experimental: as §1, §2, §3, §4

[3] = tested on: OCI-AML-3; settings: OCI-AML-3 (FLT3 wildtype)
Experimental: as §1, §2, §3, §4

CC1(C)CCC(CN2CCN(c3ccc(C(=O)NS(=O)(=O)c4ccc(NCC5CCOCC5)c([N+](=O)[O-])c4)c(Oc4cnc5[nH]ccc5c4)c3)CC2)=C(c2ccc(Cl)cc2)C1 [Venetoclax]
action of the combination with Compound 1 (synergistic, additive, antagonistic) [1]: synergy | action of the combination with Compound 1 (synergistic, additive, antagonistic) [2]: strong additive | action of the combination with Compound 1 (synergistic, additive, antagonistic) [3]: strong additive

CCc1nc(C(N)=O)c(Nc2ccc(N3CCC(N4CCN(C)CC4)CC3)c(OC)c2)nc1NC1CCOCC1 [Gilteritinib]
action of the combination with Compound 1 (synergistic, additive, antagonistic) [1]: additive effects | action of the combination with Compound 1 (synergistic, additive, antagonistic) [2]: synergistic | action of the combination with Compound 1 (synergistic, additive, antagonistic) [3]: additive effects
